Experimental data published in the supplement of paper PMC5662767.
Structures can show the parent of a compound that is named as a salt. The list shows a part of the results. Baselines shift from plate to plate; read single values as rough.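 Smoothened with circularly permuted GFP in its cytoplasmic tail is carried by a clonal Drosophila S2 line; fluorescence appears when Hh-driven phosphorylation opens an inhibitory loop. Per-cell signal, read by flow cytometry, was scaled to Hh-stimulated untreated cells. Hits were consistent fluorescence-shifting groups of inhibitors sharing pathway targets, not single compounds.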

Tested on: Drosophila S2 cl14 SmoIP sensor cells
Assay: normalized SmoIP GFP fluorescence (untreated unstimulated = 0%, untreated Hh-stimulated = 100%); higher = more Smo activation sensor fluorescence
Conditions: compound concentration: 15 uM, 24 h
[1] = stimulation: Hh conditioned medium (+Hh)
[2] = stimulation: mock conditioned medium (-Hh)

| SMILES | normalized SmoIP GFP fluorescence [1] [%] | normalized SmoIP GFP fluorescence [2] [%] |
| --- | --- | --- |
| O=C1C[C@@H](c2ccc(O)cc2)Oc2cc(O)cc(O)c21 [Naringenin] | 116 | -7.6 |
| Cc1ccc(C(=O)Cn2c3c(sc2=N)CCCC3)cc1 [pifithrin-alpha] | 121 | 2.75 |
| COc1ccc(C(=O)Nc2sc3c(c2C(N)=O)CCCC3)cc1OC | 142 | -9.04 |
| CC1=C(/C=C/C(C)=C/C=C/C(C)=C\C(=O)O)C(C)(C)CCC1 [Isotretinoin] | 119 | 13.8 |
| Nc1ccc2ncnc(NCCc3ccc(Oc4ccccc4)cc3)c2c1 | 54.5 | 46.9 |
| COc1ccccc1OCC(O)CN1CCN(CC(=O)Nc2c(C)cccc2C)CC1 (centres undefined) [Ranolazine-dihydrochloride] | 134 | 10.7 |
| C=C[C@@]1(C)CC(=O)[C@]2(O)[C@@]3(C)[C@@H](O)CCC(C)(C)[C@@H]3[C@H](O)[C@H](OC(C)=O)[C@@]2(C)O1 [forskolin] | 148 | 0.154 |
| CC(=O)OCC(=O)NCCCOc1cccc(CN2CCCCC2)c1 [roxatidine-acetate-hcl] | 115 | -8.77 |
| Cc1cc(/C=C/C#N)cc(C)c1Nc1ccnc(Nc2ccc(C#N)cc2)n1 [rilpivirine] | 162 | 45.1 |
| COc1c(C)c(C(=O)c2ccc(N)c(C(=O)O)c2)n2ccccc12 | 109 | 4 |
| c1cn2cc(-c3ccc4cn[nH]c4c3)nc(Nc3ccc(N4CCOCC4)cc3)c2n1 | 152 | 22.8 |
| COc1ccc2c(c1)c(CC(=O)N1CCOCC1)c(C)n2C(=O)c1ccc(Cl)cc1 | 130 | 1.84 |
| CC(C(=O)O)c1ccc2c(c1)CC(=O)c1ccccc1S2 (centres undefined) [zaltoprofen] | 123 | 1.44 |
| CC[C@H]1OC(=O)[C@H](C)[C@@H](O[C@H]2C[C@@](C)(OC)[C@@H](O)[C@H](C)O2)[C@H](C)[C@@H](O[C@@H]2O[C@H](C)C[C@H](N(C)C)[C@H]2O)[C@](C)(OC)C[C@@H](C)C(=O)[C@H](C)[C@@H](O)[C@]1(C)O [clarithromycin] | 146 | -2.82 |
| COc1ccccc1N1CCN(CCN(C(=O)C2CCCCC2)c2ccccn2)CC1 | 141 | -5.35 |
| Nc1ccn([C@H]2CC[C@@H](CO)O2)c(=O)n1 [Zalcitabine] | 168 | -6.79 |
| CC(=O)OCC[N+](C)(C)C [Acetylcholine-chloride] | 129 | -13.9 |
| Cc1c(NC(=O)OC[C@@H]2COCCN2)cn2ncnc(Nc3ccc4c(cnn4Cc4cccc(F)c4)c3)c12 | 71.5 | 81.3 |
| CS(=O)(=O)N1CCc2c(-c3cnc(N)nc3)nc(N3CCOCC3)nc21 | 76.8 | -3.72 |
| Nc1nc(N)nc(-c2cc(Cl)ccc2Cl)n1 [Irsogladine-maleate] | 127 | -7.42 |
| O=C(Nc1cccc(Cl)c1)Nc1ncc(CCNc2ncnc3ccsc23)s1 | 109 | 78.8 |
| Cc1cc(-c2ncc(CC(=O)Nc3ccc(-c4cnccn4)cn3)cc2C)ccn1 | 266 | 61.4 |
| CC(C)CC(=O)Nc1n[nH]c2c1CN(C(=O)C1CCN(C)CC1)C2(C)C | 90.8 | 59.4 |
| CCOC(=O)c1ccc(NC2CCCCC2)c(N)c1 [ferrostatin-1-fer-1] | 134 | 16.7 |

| SMILES | normalized SmoIP GFP fluorescence [1] [%] | normalized SmoIP GFP fluorescence [2] [%] |
| --- | --- | --- |
| COc1cc2nc(N(C)CCCNC(=O)C3CCCO3)nc(N)c2cc1OC (centres undefined) [Alfuzosin-hydrochloride] | 133 | 0.274 |
| CCOC(=O)N1CCC(=C2c3ccc(Cl)cc3CCc3cccnc32)CC1 [Loratadine] | 158 | 34.9 |
| COc1ccc(-n2nc(C(N)=O)c3c2C(=O)N(c2ccc(N4CCCCC4=O)cc2)CC3)cc1 | 138 | -2.42 |
| Cc1ccccc1C(=O)Nc1ccc(C(=O)N2CCCC(N(C)C)c3ccccc32)cc1 (centres undefined) [mozavaptan] | 118 | 7.06 |
| CCCCCCCCc1ccc(CCC(N)(CO)CO)cc1 | 132 | 26.7 |
| CN(C)[C@@H](CCOc1cccc2ccccc12)c1ccccc1 [Dapoxetine-hydrochloride(Priligy)] | 164 | 32.3 |
| Cc1cc(O)c2c(c1)C(=O)c1cccc(O)c1C2=O [Chrysophanic-acid-Chrysophanol] | 126 | -12.2 |
| OC(CCN1CCCCC1)(c1ccccc1)C1CC2C=CC1C2 (centres undefined) [Biperiden-hydrochloride] | 141 | 12.4 |
| COc1c(C)c2c(c(O)c1C/C=C(\C)CCC(=O)OCCN1CCOCC1)C(=O)OC2 [Mycophenolate-mofetil-(CellCept)] | 116 | 3.72 |
| CC1=C(C(=O)OC2CCCCC2)C(c2ccc([N+](=O)[O-])cc2)C2=C(CC(C)(C)CC2=O)N1 (centres undefined) | 124 | 17.7 |
| CN1CCN2c3ccccc3Cc3ccccc3C2C1 (centres undefined) [Mianserin-hydrochloride] | 154 | 49.2 |
| C=CC(=O)Nc1ccc2ncnc(Nc3cccc(Br)c3)c2c1 | 194 | 46.9 |
| CCCCNc1ccc(C(=O)OCCN(C)C)cc1 [tetracaine-hydrochloride-pontocaine] | 161 | -8.23 |
| CC[C@@H](C)Nc1cc(C(=O)N[C@H]2C[C@H]3CC[C@@H](C2)N3c2ccc(C(=O)C3CC3)cn2)c(C)cc1C(N)=O | 158 | 40.6 |
| CC(C)N(C[C@H]1O[C@@H](n2cnc3c(N)ncnc32)[C@H](O)[C@@H]1O)[C@H]1C[C@@H](CCc2nc3cc(C(C)(C)C)ccc3[nH]2)C1 | 125 | 1.95 |
| CN1CCC(NC(=O)c2cc(-c3c(O)cc(O)cc3Oc3ccc([N+](=O)[O-])cc3)on2)CC1 | 197 | 34.8 |
| Cn1cnc(N)c2ncnc1-2 [3-methyladenine] | 123 | -3.9 |
| Cc1ccc(C(=O)N(CCCN)[C@@H](c2oc3cc(Cl)ccc3c(=O)c2Cc2ccccc2)C(C)C)cc1 | 220 | 93 |
| Cc1cc(C(C)Nc2ccccc2)c2nc(N3CCOCC3)cc(=O)n2c1 (centres undefined) | 154 | 32.6 |
| Cc1ccccc1C(=O)Nc1ccc(C(=O)N2CCCC(O)c3cc(Cl)ccc32)c(C)c1 (centres undefined) | 134 | -2.82 |
| CN1CCc2c(c3ccccc3n2Cc2ccc(C(=O)NO)cc2)C1 [tubastatin-a-hcl] | 133 | 0.154 |
| NC(=O)N1CCC(CC(=O)N2CCC(C3c4ncc(Br)cc4CCc4cc(Cl)cc(Br)c43)CC2)CC1 (centres undefined) | 154 | 77.4 |
| Nc1cccc(-c2cc3c(Oc4cccc(O)c4)ncnc3[nH]2)c1 | 125 | 32 |
| CC(C)(Oc1ccc(C2CC2(Cl)Cl)cc1)C(=O)O (centres undefined) [ciprofibrate] | 127 | -12.7 |

| SMILES | normalized SmoIP GFP fluorescence [1] [%] | normalized SmoIP GFP fluorescence [2] [%] |
| --- | --- | --- |
| CC(C)(C)c1cc(NC(=O)Nc2ccc(-c3cn4c(n3)sc3cc(OCCN5CCOCC5)ccc34)cc2)no1 | 182 | 87.7 |
| CNC(=O)CN1CCC(Oc2cc3c(Nc4cccc(Cl)c4F)ncnc3cc2OC)CC1 | 180 | 43.6 |
| Fc1ccc(C(c2ccc(F)cc2)N2CCN(C/C=C/c3ccccc3)CC2)cc1 [flunarizine-dihydrochloride] | 205 | 54.6 |
| CCOC(=O)c1ccc(OC(=O)CCCCCNC(=N)N)cc1 [gabexate-mesylate] | 136 | -17.5 |
| CC(C)C[C@H](NC(=O)CNC(=O)c1cc(Cl)ccc1Cl)B(O)O | 90 | 38.1 |
| O=C1NC(=O)C(=Cc2ccc(-c3ccc(F)cc3)o2)S1 (stereo in doubt) | 139 | 7.86 |
| Nc1nccc(Oc2ccc(NC(=O)c3c[nH]cc(-c4ccc(F)cc4)c3=O)cc2F)c1Cl | 197 | 54 |
| CCC1=C(C)CN(C(=O)NCCc2ccc(S(=O)(=O)NC(=O)N[C@H]3CC[C@H](C)CC3)cc2)C1=O [Glimepiride] | 140 | 12.4 |
| O=C(Nc1cccc(C(F)(F)F)c1)Nc1cc(S(=O)(=O)NC2CC2)ccc1-c1ccsc1 | 153 | 42.6 |
| N[C@H]1C[C@@H]1c1ccc(-c2cccc(O)c2)cc1 | 116 | 2.24 |
| CC(=O)Nc1cccc2c1c(Sc1ccc(Cl)cc1)c(C)n2CC(=O)O | 119 | 0.588 |
| O=C(NC1CCOCC1)c1ccc(-c2cc(-c3c[nH]nc3-c3ccccn3)ccn2)cc1 | 176 | 19.4 |
| O=c1ncn2nc(Sc3ccc(F)cc3F)ccc2c1-c1c(Cl)cccc1Cl | 111 | -1.13 |
| CCOC(=O)[C@H](CCc1ccccc1)N[C@@H](C)C(=O)N1Cc2ccccc2C[C@H]1C(=O)O [quinapril-hydrochloride-accupril] | 125 | -11.6 |
| NS(=O)(=O)c1ccc(NC(=O)Nc2ccc(F)cc2)cc1 | 112 | 2.63 |
| Oc1cc(O)c(Cl)cn1 [gimeracil] | 129 | -13.6 |
| CCO[C@@H]1OC(=O)C[C@@H]1NC(=O)[C@@H]1CCCN1C(=O)[C@@H](NC(=O)c1ccc(N)c(Cl)c1)C(C)(C)C | 134 | -14.5 |
| CN(C)CC[C@H](CSc1ccccc1)Nc1ccc(S(=O)(=O)NC(=O)c2ccc(N3CCN(Cc4ccccc4-c4ccc(Cl)cc4)CC3)cc2)cc1[N+](=O)[O-] | 198 | 80.9 |
| COc1cc(NC(=O)c2ccccn2)ccc1Cl | 106 | -0.0369 |
| C[C@@H]1COC(Nc2ccc3ncnc(Nc4ccc(OCc5nccs5)c(Cl)c4)c3c2)=N1 | 163 | 23.9 |
| COc1cc(-c2ncn(/C=C\C(=O)OC(C)C)n2)cc(C(F)(F)F)c1 | 105 | 1.21 |
| COC(=O)C1=C(C#N)NC(C)=C(C(=O)OC(C)C)C1c1cccc([N+](=O)[O-])c1 (centres undefined) [nilvadipine-arc029] | 191 | 7.46 |
| CN1CC(=O)N2[C@H](c3ccc4c(c3)OCO4)c3[nH]c4ccccc4c3C[C@@H]2C1=O [Tadalafil(Cialis)] | 97 | 4.26 |
| CC(C)CN(C[C@@H](O)[C@H](Cc1ccccc1)NC(=O)O[C@H]1CO[C@H]2OCC[C@H]21)S(=O)(=O)c1ccc(N)cc1 [Darunavir-Ethanolate(Prezista)] | 116 | 3.18 |

A draw from above in order of count of non-hydrogen atoms, rising:

| SMILES | normalized SmoIP GFP fluorescence [1] [%] | normalized SmoIP GFP fluorescence [2] [%] |
| --- | --- | --- |
| NS(=O)(=O)c1ccc(NC(=O)Nc2ccc(F)cc2)cc1 | 112 | 2.63 |
| COC(=O)C1=C(C#N)NC(C)=C(C(=O)OC(C)C)C1c1cccc([N+](=O)[O-])c1 (centres undefined) [nilvadipine-arc029] | 191 | 7.46 |
| C[C@@H]1COC(Nc2ccc3ncnc(Nc4ccc(OCc5nccs5)c(Cl)c4)c3c2)=N1 | 163 | 23.9 |
| CCC1=C(C)CN(C(=O)NCCc2ccc(S(=O)(=O)NC(=O)N[C@H]3CC[C@H](C)CC3)cc2)C1=O [Glimepiride] | 140 | 12.4 |
